Data as given in PubChem BioAssay AID1224830 (NIAID, 2016)

Aim: 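Genes whose knock-down alters the TNF-alpha reporter response to LPS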 (primary screen)
Cell system: human THP-1 monocytic leukaemia cells, TNF dual-luciferase reporter clone, PMA-differentiated to macrophage-like cells
Reagent: siRNA pool against human genes, 50 nM
Time to read-out: LPS for 4 h, given about 3 days after siRNA transfection
Challenge: bacterial LPS (TLR4 ligand), 10 ng/ml
Read-out: 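Ratio of firefly to renilla light, scaled to the plate median and expressed as a robust z-score per replicate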
Reading the numbers: TNF reporter robust z-score: higher = stronger TNF reporter response to LPS
Hit rule: 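a well is active when its z-score exceeds 2.8 or falls below -1.5; control wells carry no call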
This is one part, drawn at random, of about 18,000 deposited reagents. About 2,900 of them (16%) were called active. 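Calls are made per well; low scores hint the gene aids the LPS response, high scores that it dampens it.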 Repeated entries: four replicate wells of each siRNA pool. Reagent sequences are not shown.

| Target gene | PubChem SID | TNF reporter robust z-score | call |
| --- | --- | --- | --- |
| MTIF2 | SID315450068 | -1.25 | inactive |
| MTIF2 | SID315450068 | 1.42 | inactive |
| MTIF2 | SID315450068 | 0.22 | inactive |
| MTIF2 | SID315450068 | -0.38 | inactive |
| USP49 | SID315455516 | -0.29 | inactive |
| USP49 | SID315455516 | 1.02 | inactive |
| USP49 | SID315455516 | 2.04 | inactive |
| USP49 | SID315455516 | 4.62 | active |
| LINC03122 | SID315463869 | -0.22 | inactive |
| LINC03122 | SID315463869 | -0.46 | inactive |
| LINC03122 | SID315463869 | -0.17 | inactive |
| LINC03122 | SID315463869 | 0.44 | inactive |
| SCUBE1 | SID315459732 | -0.99 | inactive |
| SCUBE1 | SID315459732 | -1.18 | inactive |
| SCUBE1 | SID315459732 | -0.6 | inactive |
| SCUBE1 | SID315459732 | -1.03 | inactive |
| HLA-B | SID315449201 | 0.23 | inactive |
| HLA-B | SID315449201 | 0.36 | inactive |
| HLA-B | SID315449201 | -0.49 | inactive |
| HLA-B | SID315449201 | -0.2 | inactive |
| KCNA7 | SID315449598 | 0.88 | inactive |
| KCNA7 | SID315449598 | 2.81 | active |
| KCNA7 | SID315449598 | 1.33 | inactive |
| KCNA7 | SID315449598 | 0.59 | inactive |
| TNS1 | SID315451936 | -0.38 | inactive |
| TNS1 | SID315451936 | 0.85 | inactive |
| TNS1 | SID315451936 | 0.62 | inactive |
| TNS1 | SID315451936 | 0.4 | inactive |
| SLC9C1 | SID315463840 | -0.54 | inactive |
| SLC9C1 | SID315463840 | -1.21 | inactive |
| SLC9C1 | SID315463840 | -0.29 | inactive |
| SLC9C1 | SID315463840 | -0.04 | inactive |
| CLASP2 | SID315455006 | 1.64 | inactive |
| CLASP2 | SID315455006 | 1.58 | inactive |
| CLASP2 | SID315455006 | 0.11 | inactive |
| CLASP2 | SID315455006 | 0.6 | inactive |
| CNNM4 | SID315455793 | 3.06 | active |
| CNNM4 | SID315455793 | 1.12 | inactive |
| CNNM4 | SID315455793 | 0.73 | inactive |
| CNNM4 | SID315455793 | 0.27 | inactive |
| TMEM203 | SID315461117 | -1.28 | inactive |
| TMEM203 | SID315461117 | -1.51 | active |
| TMEM203 | SID315461117 | -1.67 | active |
| TMEM203 | SID315461117 | -1.58 | active |
| TPD52L1 | SID315451948 | -0.2 | inactive |
| TPD52L1 | SID315451948 | -0.34 | inactive |
| TPD52L1 | SID315451948 | 0.47 | inactive |
| TPD52L1 | SID315451948 | 0.67 | inactive |
| RAD23A | SID315451028 | 0.28 | inactive |
| RAD23A | SID315451028 | 0.17 | inactive |
| RAD23A | SID315451028 | 0.29 | inactive |
| RAD23A | SID315451028 | 0.71 | inactive |
| TTC7B | SID315462251 | -0.32 | inactive |
| TTC7B | SID315462251 | 0.2 | inactive |
| TTC7B | SID315462251 | 0.48 | inactive |
| TTC7B | SID315462251 | 0.96 | inactive |
| PAK4 | SID315453988 | -0.54 | inactive |
| PAK4 | SID315453988 | 0.84 | inactive |
| PAK4 | SID315453988 | -0.51 | inactive |
| PAK4 | SID315453988 | 0.69 | inactive |
| SPANXN5 | SID315465010 | 3.45 | active |
| SPANXN5 | SID315465010 | 3.92 | active |
| SPANXN5 | SID315465010 | 4.09 | active |
| SPANXN5 | SID315465010 | 5.37 | active |
| BTNL8 | SID315459556 | 5.96 | active |
| BTNL8 | SID315459556 | 7.03 | active |
| BTNL8 | SID315459556 | 2.77 | inactive |
| BTNL8 | SID315459556 | 1.64 | inactive |
| MAP3K6 | SID315453013 | 0.22 | inactive |
| MAP3K6 | SID315453013 | 1.47 | inactive |
| MAP3K6 | SID315453013 | -0.36 | inactive |
| MAP3K6 | SID315453013 | -0.4 | inactive |
| NR4A1 | SID315449239 | -1.81 | active |
| NR4A1 | SID315449239 | -1.62 | active |
| NR4A1 | SID315449239 | -1.94 | active |
| NR4A1 | SID315449239 | -1.87 | active |
| TEX2 | SID315457909 | -1.77 | active |
| TEX2 | SID315457909 | -1.99 | active |
| TEX2 | SID315457909 | -1.36 | inactive |
| TEX2 | SID315457909 | -1.23 | inactive |
| MRPL28 | SID315454202 | 0.19 | inactive |
| MRPL28 | SID315454202 | -0.32 | inactive |
| MRPL28 | SID315454202 | -0.46 | inactive |
| MRPL28 | SID315454202 | 0.17 | inactive |
| DNTTIP1 | SID315461344 | -0.89 | inactive |
| DNTTIP1 | SID315461344 | -0.14 | inactive |
| DNTTIP1 | SID315461344 | -0.88 | inactive |
| DNTTIP1 | SID315461344 | -0.33 | inactive |
| MKLN1 | SID315449981 | -0.89 | inactive |
| MKLN1 | SID315449981 | -0.75 | inactive |
| MKLN1 | SID315449981 | -0.92 | inactive |
| ZNF449 | SID315463130 | 0.81 | inactive |
| ZNF449 | SID315463130 | 0.56 | inactive |
| ZNF449 | SID315463130 | 0.37 | inactive |
| ZNF449 | SID315463130 | -0.02 | inactive |
| MPND | SID315460604 | -0.63 | inactive |
| MPND | SID315460604 | -0.3 | inactive |
| MPND | SID315460604 | -0.48 | inactive |
| SEC61G | SID315455271 | 2.08 | inactive |
| SEC61G | SID315455271 | 0.19 | inactive |
| SEC61G | SID315455271 | 2.52 | inactive |
| SEC61G | SID315455271 | 0.12 | inactive |
| COL9A3 | SID315448027 | -0.34 | inactive |
| COL9A3 | SID315448027 | 0.05 | inactive |
| COL9A3 | SID315448027 | -1.06 | inactive |
| COL9A3 | SID315448027 | 0.03 | inactive |
| CPNE2 | SID315463277 | 0.04 | inactive |
| CPNE2 | SID315463277 | 0.54 | inactive |
| CPNE2 | SID315463277 | 1.33 | inactive |
| CPNE2 | SID315463277 | -0.21 | inactive |
| ASB6 | SID315462095 | 2.51 | inactive |
| ASB6 | SID315462095 | 0.23 | inactive |
| ASB6 | SID315462095 | 0.85 | inactive |
| ASB6 | SID315462095 | 0.72 | inactive |
| TUBB | SID315463110 | 0.02 | inactive |
| TUBB | SID315463110 | 0.39 | inactive |
| TUBB | SID315463110 | 0.37 | inactive |
| TUBB | SID315463110 | 0.25 | inactive |
| ZDHHC3 | SID315456629 | 0.64 | inactive |
| ZDHHC3 | SID315456629 | 1.01 | inactive |
| ZDHHC3 | SID315456629 | 0.31 | inactive |
| ZDHHC3 | SID315456629 | 1.3 | inactive |
| CDYL2 | SID315461607 | 0.5 | inactive |
| CDYL2 | SID315461607 | 1.25 | inactive |
| CDYL2 | SID315461607 | 0.36 | inactive |
| CDYL2 | SID315461607 | 0.32 | inactive |
| RAB44 | SID315464780 | -0.49 | inactive |
| RAB44 | SID315464780 | 0.78 | inactive |
| RAB44 | SID315464780 | -0.35 | inactive |
| RAB44 | SID315464780 | -0.27 | inactive |
| CD52 | SID315447864 | -2 | active |
| CD52 | SID315447864 | -1.78 | active |
| CD52 | SID315447864 | -1.85 | active |
| CD52 | SID315447864 | -1.75 | active |
| DBH | SID315448251 | 0.16 | inactive |
| DBH | SID315448251 | 2.08 | inactive |
| DBH | SID315448251 | 1.88 | inactive |
| DBH | SID315448251 | 5.34 | active |
| RAB21 | SID315454924 | 0.85 | inactive |
| RAB21 | SID315454924 | 1.01 | inactive |
| RAB21 | SID315454924 | 1.17 | inactive |
| RAB21 | SID315454924 | 1.18 | inactive |
